Reference: PMC8874583
Results are given in words; binding and its absence hold for the method and conditions named. Binding seen in cells or lysates may run through a third protein. Some binding calls cover weakened binding; strength is not graded here.

Sequences of proteins named here, by UniProt entry; tags and fusion partners are left off. A change or cut given only in a name is not applied to a line headed by its entry. A line that says so, or that is headed by a name, gives the form on record, which may keep a tag or linker.
Flag-MDA5 (porcine MDA5) (A7LCX1, form named): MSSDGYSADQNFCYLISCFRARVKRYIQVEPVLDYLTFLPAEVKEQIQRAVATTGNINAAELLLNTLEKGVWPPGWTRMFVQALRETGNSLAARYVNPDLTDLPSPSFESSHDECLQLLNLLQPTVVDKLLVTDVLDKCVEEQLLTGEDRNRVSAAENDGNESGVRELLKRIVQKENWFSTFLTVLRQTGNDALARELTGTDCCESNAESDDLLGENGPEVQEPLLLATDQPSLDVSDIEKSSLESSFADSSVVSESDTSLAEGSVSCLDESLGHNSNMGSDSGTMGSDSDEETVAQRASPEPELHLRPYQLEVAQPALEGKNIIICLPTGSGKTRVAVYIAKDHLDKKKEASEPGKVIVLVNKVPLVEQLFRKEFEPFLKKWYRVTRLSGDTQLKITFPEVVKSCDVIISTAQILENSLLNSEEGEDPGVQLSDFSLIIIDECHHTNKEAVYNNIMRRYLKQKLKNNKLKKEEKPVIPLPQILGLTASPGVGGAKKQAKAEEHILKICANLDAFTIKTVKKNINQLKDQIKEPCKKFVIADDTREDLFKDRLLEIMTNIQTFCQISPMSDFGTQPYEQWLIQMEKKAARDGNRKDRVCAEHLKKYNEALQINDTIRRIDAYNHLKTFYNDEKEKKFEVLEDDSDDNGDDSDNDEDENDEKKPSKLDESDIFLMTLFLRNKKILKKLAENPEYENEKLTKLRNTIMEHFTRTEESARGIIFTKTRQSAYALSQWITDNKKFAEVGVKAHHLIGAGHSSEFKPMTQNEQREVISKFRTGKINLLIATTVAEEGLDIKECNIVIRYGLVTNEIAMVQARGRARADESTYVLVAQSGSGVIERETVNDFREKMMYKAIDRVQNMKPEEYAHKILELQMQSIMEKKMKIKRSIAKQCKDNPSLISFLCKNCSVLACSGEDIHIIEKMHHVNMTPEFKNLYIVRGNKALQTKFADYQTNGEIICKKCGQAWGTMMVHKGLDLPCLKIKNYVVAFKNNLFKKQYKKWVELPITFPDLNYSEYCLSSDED
UniProt A0A4X1VVC5: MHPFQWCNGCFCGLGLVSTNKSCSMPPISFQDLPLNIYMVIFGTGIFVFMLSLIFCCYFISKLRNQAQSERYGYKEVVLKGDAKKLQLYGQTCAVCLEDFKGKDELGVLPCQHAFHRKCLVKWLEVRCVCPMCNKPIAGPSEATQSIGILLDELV

Target: Flag-MDA5 (porcine MDA5) (porcine) (UniProt A7LCX1)
Assay: co-IP

In the case of “HA-RNF122 (porcine E3 ubiquitin ligase RNF122) (from UniProt A0A4X1VVC5 1-155)”, the binding is reported as “binds”.
